Source: PubChem BioAssay AID1671190 (National Center for Advancing Translational Sciences (NCATS), 2021)
Out of some 580,000 compounds screened, about 6,100 (1.1%) were called active. The inconclusive results got no clear call from the source; some entries with a clear call stand among them for comparison. The call rests on the fitted dose curve; in most records, active means well fitted inhibition curve with a large enough effect; inconclusive means small, poorly fitted or top-dose-only effect, or another doubt; inactive means no such curve, though single readings can be large or run the other way. A potency beside an inconclusive call is a rough fit, not a confirmed value.

Chains of the proteins cited; added tags and fusions are not shown.
UniProt P18054, whole entry, looked up: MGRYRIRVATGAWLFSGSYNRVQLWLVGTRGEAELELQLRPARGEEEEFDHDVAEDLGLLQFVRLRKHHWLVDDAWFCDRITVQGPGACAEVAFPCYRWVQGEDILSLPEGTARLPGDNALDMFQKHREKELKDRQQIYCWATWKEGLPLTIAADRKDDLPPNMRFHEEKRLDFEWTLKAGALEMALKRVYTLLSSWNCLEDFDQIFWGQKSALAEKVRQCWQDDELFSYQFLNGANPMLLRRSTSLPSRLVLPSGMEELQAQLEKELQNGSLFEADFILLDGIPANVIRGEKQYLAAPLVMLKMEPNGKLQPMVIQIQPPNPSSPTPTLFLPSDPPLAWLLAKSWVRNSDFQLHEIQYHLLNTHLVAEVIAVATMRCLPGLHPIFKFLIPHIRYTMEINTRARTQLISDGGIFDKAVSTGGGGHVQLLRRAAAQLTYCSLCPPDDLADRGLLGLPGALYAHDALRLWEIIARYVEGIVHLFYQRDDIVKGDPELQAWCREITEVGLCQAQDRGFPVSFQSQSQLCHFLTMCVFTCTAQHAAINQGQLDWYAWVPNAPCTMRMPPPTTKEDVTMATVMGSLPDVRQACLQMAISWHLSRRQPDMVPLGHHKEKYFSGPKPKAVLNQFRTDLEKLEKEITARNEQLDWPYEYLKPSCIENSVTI

target: Polyunsaturated fatty acid lipoxygenase ALOX12 (Homo sapiens) (UniProt P18054); test: Primary qHTS assay for inhibitors of human arachidonate 12S-lipoxygenase (ALOX12): Round 2; conditions: purified 12hLO, xylenol orange hydroperoxide absorbance; activity change, negative = inhibition: at 108 µM (top of the series) unless noted
Outline: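 Purified human 12hLO (150 nM final) in 25 mM Hepes, 0.01% Triton X-100, pH 7.0 was preincubated 15 min at room temperature with compound. Then 40 uM arachidonic acid was added, 30 min. Hydroperoxide was read by Fe-XO absorbance ratio 573/405 nm.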
On the % scale 0 is the no-effect control and ±100 the full control effect; potency means the concentration at half of the fitted maximal effect.

| SMILES | Potency | activity change, negative = inhibition |
| --- | --- | --- |
| CC(=O)N(C)c1ccc(OCC(O)CN(Cc2ccco2)S(=O)(=O)c2ccc(C)cc2)cc1 (centres undefined) | inconclusive: 141 µM [inhibitor, partial curve, poor fit] | – |
| CC(NC(=O)c1ccc2c(c1)sc1nc(-c3ccc(F)cc3)cn12)C12CC3CC(CC(C3)C1)C2 (centres undefined) | inconclusive: 56.2 µM [inhibitor, partial curve, poor fit] | – |
| CC(C)C[C@H]1CNC(=S)N1C[C@H]1CCCN1C[C@H](Cc1ccc(O)cc1)N1C[C@H](CC(C)C)N(CCc2ccccc2)C1=S | inconclusive: 39.8 µM [inhibitor, partial curve, poor fit] | – |
| COCCNC(=S)NC(=O)CC12CC3CC(CC(C3)C1)C2 | inconclusive: 44.7 µM [inhibitor, partial curve, poor fit] | – |
| CCn1ncc(N2CCC(NC(=O)CCC3CCCC3)CC2)cc1=O | – | inactive: 0.565% |
| CCN1C(=O)C2CC3(CCN(C(=O)c4cc(C)n(C)n4)CC3)CN2C1=O (centres undefined) | – | inactive: 42.9% |
| CCc1nnc(NC(=O)c2cc(-c3ccc(C)cc3)nc3ccccc23)s1 | – | inactive: 5.31% |
| O=C(NN=Cc1cccc(O)c1O)c1ccccc1 | inconclusive: 2.82 µM [inhibitor, full curve, poor fit] | – |
| COc1ccccc1CNC(=O)c1ccc2c(c1)N(C)C1CCCCN1C2=O (centres undefined) | inconclusive: 50.1 µM [inhibitor, partial curve, poor fit] | – |
| CC(c1ccc(Cl)cc1)N(CCN(C)C)c1ccccn1 (centres undefined) | inconclusive: 56.2 µM [inhibitor, partial curve, poor fit] | – |
| Cc1ccccc1-n1ncc2c1NC(=O)CC21C(=O)N(CC(N)=O)c2c(C)cccc21 (centres undefined) | – | inactive: 9.84% |
| COC(=O)c1sccc1S(=O)(=O)Oc1ccc2c(C(F)(F)F)cc(=O)oc2c1 | – | inactive: 16% |
| Cc1ccnc(N2C(=O)c3ccc([N+](=O)[O-])cc3C2=O)c1 | inconclusive: 112 µM [inhibitor, single point] | – |
| COc1cccc(C(=O)C(C#N)C(=O)Nc2ccccc2)c1 (centres undefined) | inconclusive: 5.01 µM [inhibitor, full curve, poor fit] | – |
| Cc1ccccc1NC(=O)C1Cc2ccccc2CN1C(=O)c1ccco1 (centres undefined) | inconclusive: 89.1 µM [inhibitor, partial curve, poor fit] | – |
| COc1cc2c(cc1OC)C(/C=C/c1ccc(OC)c(OC)c1OC)=NCC2 | inconclusive: 7.94 µM [inhibitor, full curve, poor fit] | – |
| O=C1CCCc2c1cc(C(=O)NC1CCCC1)c(=O)n2-c1ccc(C(F)(F)F)cc1 | – | inactive: -34% |
| O=[N+]([O-])c1ccc(/C([O-])=C(/C(=S)Nc2ccccc2F)[n+]2ccccc2)cc1 | – | inactive: -23.8% |
| NC(=O)Cc1csc(NC(=O)CCc2ncc(-c3ccccc3Cl)o2)n1 | – | inactive: -4.02% |
| CCOc1ccccc1C(=O)Nc1cccc(-c2ccc(N3CCOCC3)nn2)c1 | inconclusive: 56.2 µM [inhibitor, partial curve, poor fit] | – |
| FC(F)(F)c1ccccc1CNCc1ccc2c(c1)OCO2 | inconclusive: 0.501 µM [inhibitor, full curve, poor fit] | – |
| O=C(NCCO)c1ccc2nc(-c3ccco3)c(-c3ccco3)nc2c1 | inconclusive: 2 µM [inhibitor, full curve, poor fit] | – |

| SMILES | Potency | activity change, negative = inhibition |
| --- | --- | --- |
| COc1cccc(-c2noc(CCCC(=O)NC3CCCC3)n2)c1 | – | inactive: -19.4% |
| COc1cccc(-c2nc(=S)c3c(n2CCCO)CCCC3)c1 | inconclusive: 39.8 µM [inhibitor, partial curve] | – |
| COc1ccc(Cl)cc1CN(C)C(=O)c1ccc(C2CCCNC2)cc1 (centres undefined) | inconclusive: 14.1 µM [inhibitor, partial curve] | – |
| CC1Cn2c(C(=O)NCc3ccccc3Cl)cc3cccc(c32)S1 (centres undefined) | – | inactive: -5.88% |
| COc1ccc(NC(=O)CCn2cnc3onc(-c4ccc(F)cc4)c3c2=O)cc1OC | inconclusive: 141 µM [inhibitor, partial curve, poor fit] | – |
| O=C(COC(=O)C(O)c1ccccc1)NC12CC3CC(CC(C3)C1)C2 (centres undefined) | – | inactive: 18.6% |
| O=C1COc2ccc(-c3ccsc3)nc2CN1Cc1ccccc1F | – | inactive: 16.8% [at 176 µM] |
| CS(=O)(=O)c1ccc(CN2C[C@@H](F)[C@@H](OCc3nc4ccc(F)cc4[nH]3)C2)cc1 | – | inactive: 8.22% [at 176 µM] |
| Cc1ccccc1NC(=O)NCCCN1CCN(c2ccccc2)CC1 | inconclusive: 126 µM [inhibitor, partial curve, poor fit] | – |
| Cc1c(NC(=S)N/N=C/c2ccc(Br)cc2)c(=O)n(-c2ccccc2)n1C | inconclusive: 100 µM [inhibitor, partial curve, poor fit] | – |
| COc1cc(CN2CCc3ccccc3C2)cc([N+](=O)[O-])c1O | inconclusive: 4.47 µM [inhibitor, full curve] | – |
| CC(=O)Oc1ccc2c(c1)OC(c1ccccc1)CC21CC(C)(C)NC(=S)N1 (centres undefined) | inconclusive: 44.7 µM [inhibitor, partial curve, poor fit] | – |
| C=Cc1ccc(Cn2c(C(=O)O)c(CNCCc3ccccc3)c3ccc(C)cc32)cc1 | inconclusive: 89.1 µM [inhibitor, partial curve, poor fit] | – |
| COc1cc(NS(=O)(=O)c2ccc3[nH]c4c(c3c2)CCCC4)cc(OC)c1OC | inconclusive: 56.2 µM [inhibitor, partial curve, poor fit] | – |
| O=C1/C(=C\c2ccc(Cl)c(Cl)c2)CN(C(=O)CCN2CCOCC2)C/C1=C/c1ccc(Cl)c(Cl)c1 | inconclusive: 50.1 µM [inhibitor, partial curve, poor fit] | – |
| C1CCC2(CC1)OCC1(CO2)COC2(CCCCC2)OC1 | inconclusive: 44.7 µM [inhibitor, partial curve, poor fit] | – |
| COc1ccc(NC(=S)Nc2ccc(S(N)(=O)=O)cc2)c(OC)c1 | inconclusive: 35.5 µM [inhibitor, single point] | – |
| CC(C(=O)NC1C=CS(=O)(=O)C1)N1C(=O)/C(=C/c2ccc(Cl)cc2)SC1=S (centres undefined) | active: 39.8 µM | – |
| Cc1cc(C(=O)N2CCCc3cc(C(F)(F)F)ccc32)c2ccccc2n1 | inconclusive: 44.7 µM [inhibitor, partial curve, poor fit] | – |
| Cc1onc(-c2c(Cl)cccc2Cl)c1C(=O)NCc1ccccn1 | inconclusive: 3.98 µM [inhibitor, full curve, poor fit] | – |
| Cc1ccccc1OCCCCn1c(C2CC(=O)N(c3ccccc3Cl)C2)nc2ccccc21 (centres undefined) | inconclusive: 35.5 µM [inhibitor, partial curve, poor fit] | – |
| CSc1nc(C)cc(/C=C\c2ccccc2)c1C#N | inconclusive: 7.08 µM [inhibitor, full curve] | – |

| SMILES | Potency | activity change, negative = inhibition |
| --- | --- | --- |
| NS(=O)(=O)c1cccc(NC(=S)NC(=O)c2cccc([N+](=O)[O-])c2)c1 | inconclusive: 1.78 µM [inhibitor, full curve, poor fit] | – |
| CCNc1ccc(S(=O)(=O)N(C)C)cc1NCC(=O)Nc1ccc(F)c(Cl)c1 | – | inactive: -6.3% |
| CCOC(=O)CC(NC(=O)c1cc2cccc(OC)c2oc1=O)c1cccc([N+](=O)[O-])c1 (centres undefined) | inconclusive: 70.8 µM [inhibitor, partial curve, poor fit] | – |
| CC1=C([N+](=O)[O-])C(c2ccccc2Cl)NC(=O)N1 (centres undefined) | inconclusive: 4.47 µM [inhibitor, full curve, poor fit] | – |
| COc1ccc(CC(=O)Nc2ccc3nc(Nc4cccc(Cl)c4)cc(C)c3c2)cc1 | inconclusive: 50.1 µM [inhibitor, partial curve, poor fit] | – |
| CCOC(=O)C1CCCN(c2c(C(=O)c3ccc(C)cc3)cnc3ccc(OCC)cc23)C1 (centres undefined) | inconclusive: 35.5 µM [inhibitor, single point] | – |
| O=C(O)CNS(=O)(=O)c1ccc(Br)c2ccccc12 | inconclusive: 10 µM [inhibitor, full curve] | – |
| O=C(NC(=S)Nc1cccc(Cl)c1N1CCCCC1)c1ccc2c(c1)OCCO2 | active: 15.8 µM | – |
| CCC(=O)N1c2ccccc2NC2=C(C(=O)CCC2)C1c1ccco1 (centres undefined) | inconclusive: 141 µM [inhibitor, partial curve, poor fit] | – |
| O=C(Nc1nc(-c2cccs2)cs1)c1ccc(Cl)s1 | inconclusive: 39.8 µM [inhibitor, partial curve, poor fit] | – |
| COc1ccccc1NC(=O)/C(C#N)=C/c1cccnc1 | inconclusive: 100 µM [inhibitor, single point] | – |
| O=S(=O)(Nc1cccnc1)c1cccs1 | inconclusive: 50.1 µM [inhibitor, partial curve, poor fit] | – |
| O=[S+]([O-])(c1cccs1)N1CCn2c(nnc2C2CCCNC2)C1 (centres undefined) | – | inactive: 72.3% |
| O=C(N/N=C/c1sc(N2CCOCC2)nc1-c1ccccc1)c1ccccc1O | – | inactive: -26.6% |
| CNC(=O)c1ccc(CN(Cc2ccco2)C(=O)c2cc3ccc(C)cc3[nH]2)cc1 | inconclusive: 50.1 µM [inhibitor, single point] | – |
| CN(C)CCNc1nc(Oc2ccccc2)c2sccc2n1 | inconclusive: 100 µM [inhibitor, single point] | – |
| CCOC(=O)C1Sc2[nH]c(=O)sc2C(c2ccc(Cl)cc2)C1C(=O)OCC (centres undefined) | inconclusive: 39.8 µM [inhibitor, partial curve, poor fit] | – |
| O=C(Nc1nc(-c2ccc(Cl)s2)cs1)c1ccncc1 | – | inactive: -5.12% |
| Cc1ccc(C(=O)N2CCN(c3ccc(NC(=S)NC(=O)c4cccs4)cc3)CC2)cc1 | active: 11.2 µM | – |
| Cc1nc(CS(=O)(=O)c2ccccc2)cc(Sc2ccc(Cl)cc2Cl)n1 | – | inactive: 0% |

For convenience, some entries already given:

| SMILES | Potency | activity change, negative = inhibition |
| --- | --- | --- |
| O=[S+]([O-])(c1cccs1)N1CCn2c(nnc2C2CCCNC2)C1 (centres undefined) | – | inactive: 72.3% |
| O=C(N/N=C/c1sc(N2CCOCC2)nc1-c1ccccc1)c1ccccc1O | – | inactive: -26.6% |
| CNC(=O)c1ccc(CN(Cc2ccco2)C(=O)c2cc3ccc(C)cc3[nH]2)cc1 | inconclusive: 50.1 µM [inhibitor, single point] | – |
| CN(C)CCNc1nc(Oc2ccccc2)c2sccc2n1 | inconclusive: 100 µM [inhibitor, single point] | – |
